# Results from article PMC11148069.
# B1: N-terminal β-propeller of xtNup88 (residues 2–500) (domain or fragment, UniProt F7C806 2-500)
# chain: AAGEHWQSSLSEHALFSRLKERTREVEELREEGERRTRKDKQLRNLLCVLDGDLLVWDSEECAFLTVRLRSLSVESTGSSGEQKLLCTNPPLFEVNEVLLSPTQHHVALVGSKGVMVLEIPKRWGKKSEFEGGEKTVNCRAIPIAERIFTSSTSLVLKQALWYPSETQEPHLILLTSDNILRLYNLHDPLTPEKVISLSSAEEETTLPHNGRSYKASLGETAVACDFGPLTPLPKGFGQYNKEDTVAYPLYILYETGETYLMYIDLQKSNIKVGKLLGPLPMYPAAEDNYGYDACAVLCLACVPNIIVIATESGLLYHCVVLEGEDDDEQTSNKSWNSSCDLIPSLYVFECVELELALKLATEEEESMELDFSCPIKLHRDPICPSRYHCTHVAGVHSVGLAWFNKLEKFLGSGEEDKDSLQELAAEQKCLVEHILCTKPLRCRLPSPIQGFWIISDLSLGTSMICITCDFECIARPLLTTIRPPSPPLLCFKIDKSST
# Biological target: His14-NEDD8-tagged APD of xtNup98 (715–866) (Xenopus tropicalis)
# Test: pull-down; His14-NEDD8-APD of xtNup98 immobilised on Ni2+ chelate matrix, incubated with xNup98-Nb1t or xhNup98-Nb2i, then xNup96(1–20)-RFP or xtNup88(2–500) added; eluted by NEDP1; SDS-PAGE/Coomassie; both purified
binder,measurement,value
B1,binding,binds

# These are yes or no findings as the source states them, for the method shown. A result given as binding can be weak or reduced; the word gives no strength.
